# Data reported in PubChem BioAssay AID1347423 (Functional Genomics Laboratory (NCATS/FGL), 2020).
# About 210 (0.4%) of roughly 52,000 sequences were called active.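 Rule for the calls: active = gene whose silencing raises cell survival under the drug, median off-target-corrected z-score across its silencing RNAs 2 or more; inactive = the rest.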 The list shows a part of the results.
# Assay: Resistance to Poly (ADP-Ribose) Polymerase inhibitor: Gene Identification via Genome-wide siRNA Screen
# Conditions: mouse BRCA2 R2336H ES cells, olaparib, CellTiter-Glo viability; active compounds read high
# Summary of the method: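 Mouse BRCA2 R2336H ES cells were reverse-transfected with siRNA (20 nM final), treated at 48 h with 500 nM olaparib, and read by CellTiter-Glo after 72 h. Scores: MAD-based z per siRNA, median per gene, seed off-target correction.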
row,Sequence,z-score
1,GGAUGAUUUAUGGUUACUGTT against V1rg3,inactive: -1.46
2,GGAUCAUUUUGAACAAGGCTT against Srl,inactive: 0.178
3,GGCUUGGUGACAGGACUAUTT against 2310008H04Rik,inactive: -2.94
4,GGCUAUGGUUGUGAGUCAATT against Btbd7,inactive: 0.141
5,GGACUGACUCUUUUUUAACTT against Ube1c,inactive: -0.322
6,GGAGAAAGUCUUUGUGAACTT against Lipc,inactive: 0.496
7,GGAAAACAAGGAACAUGCGTT against Mja1l,inactive: 1.47
8,GGAAGUCAUUUUUUCCAAGTT against 8430410K20Rik,inactive: -0.208
9,GCAGUACAAGCGAUUUGUGTT against Duox2,inactive: -0.0493
10,GGGUUAAAGUGCCACGUACTT against Apoc4,inactive: 0.201
11,GCAAGAAAAUCUGAUGCCGTT against Sumf2,inactive: -0.0251
12,GGAAGUUGGAGAAGCAAAATT against 2900042E01Rik,inactive: -1.32
13,GGGUAGGUUUGAAAGAAAGTT against Zfp191,inactive: 2.23
14,CCGAAAUGUGUGUUUUAAATT against Vapb,inactive: 0.159
15,GCACGUGAUGCAAGUUCUATT against 0610042C05Rik,inactive: -0.765
16,GCCUAUUGUAAAUACAGGUTT against Bdnf,inactive: 0.525
17,GGCAAACUGCGUGUACACUTT against 1110014L17Rik,inactive: -0.755
18,GGAUGAACAGGAGAAAGUCTT against Irak2,inactive: 0.0975
19,GCCUCGAUCUGAUCUAGAGTT against 9430056A22Rik,inactive: -0.586
20,GCUACUCAUUGCUAAGUGUTT against Kcnmb2,inactive: 0.752
21,GGUGGACAAGAUGAUGGAATT against Gps2,inactive: -0.315
22,GGAUUACAAAUGGAGAAAGTT against Tmem16d,inactive: 1.12
23,GCCCAACAAAAAGUUGAUUTT against Vrk2,inactive: 0.557
24,CCAACAUCUAGAGAGUCUGTT against Olfr1031,inactive: 0.0263
25,GCAGAUAAUUUUAACCCUCTT against Inpp5b,inactive: -0.499
26,GGUCCUCCAAUGGAACAAGTT against Rhced,inactive: -1.27
27,GGAAGACUUUGGCUUUGAATT against Tfpt,inactive: 0.732
28,GCUUUUCGGAGCUCUAUAUTT against Sipa1,inactive: 0.368
29,CCAUUUAAACUAGAUCCCATT against Mid2,inactive: 0.0835

# Part of the list above, bar-delimited:
row | Sequence | z-score
20 | GCUACUCAUUGCUAAGUGUTT against Kcnmb2 | inactive: 0.752
21 | GGUGGACAAGAUGAUGGAATT against Gps2 | inactive: -0.315
